Data on 1 sequence can be found in patent US6762290.

Chains of the proteins cited; added tags and fusions are not shown. Residues count along the entry.
UniProt P35968, 20-1356: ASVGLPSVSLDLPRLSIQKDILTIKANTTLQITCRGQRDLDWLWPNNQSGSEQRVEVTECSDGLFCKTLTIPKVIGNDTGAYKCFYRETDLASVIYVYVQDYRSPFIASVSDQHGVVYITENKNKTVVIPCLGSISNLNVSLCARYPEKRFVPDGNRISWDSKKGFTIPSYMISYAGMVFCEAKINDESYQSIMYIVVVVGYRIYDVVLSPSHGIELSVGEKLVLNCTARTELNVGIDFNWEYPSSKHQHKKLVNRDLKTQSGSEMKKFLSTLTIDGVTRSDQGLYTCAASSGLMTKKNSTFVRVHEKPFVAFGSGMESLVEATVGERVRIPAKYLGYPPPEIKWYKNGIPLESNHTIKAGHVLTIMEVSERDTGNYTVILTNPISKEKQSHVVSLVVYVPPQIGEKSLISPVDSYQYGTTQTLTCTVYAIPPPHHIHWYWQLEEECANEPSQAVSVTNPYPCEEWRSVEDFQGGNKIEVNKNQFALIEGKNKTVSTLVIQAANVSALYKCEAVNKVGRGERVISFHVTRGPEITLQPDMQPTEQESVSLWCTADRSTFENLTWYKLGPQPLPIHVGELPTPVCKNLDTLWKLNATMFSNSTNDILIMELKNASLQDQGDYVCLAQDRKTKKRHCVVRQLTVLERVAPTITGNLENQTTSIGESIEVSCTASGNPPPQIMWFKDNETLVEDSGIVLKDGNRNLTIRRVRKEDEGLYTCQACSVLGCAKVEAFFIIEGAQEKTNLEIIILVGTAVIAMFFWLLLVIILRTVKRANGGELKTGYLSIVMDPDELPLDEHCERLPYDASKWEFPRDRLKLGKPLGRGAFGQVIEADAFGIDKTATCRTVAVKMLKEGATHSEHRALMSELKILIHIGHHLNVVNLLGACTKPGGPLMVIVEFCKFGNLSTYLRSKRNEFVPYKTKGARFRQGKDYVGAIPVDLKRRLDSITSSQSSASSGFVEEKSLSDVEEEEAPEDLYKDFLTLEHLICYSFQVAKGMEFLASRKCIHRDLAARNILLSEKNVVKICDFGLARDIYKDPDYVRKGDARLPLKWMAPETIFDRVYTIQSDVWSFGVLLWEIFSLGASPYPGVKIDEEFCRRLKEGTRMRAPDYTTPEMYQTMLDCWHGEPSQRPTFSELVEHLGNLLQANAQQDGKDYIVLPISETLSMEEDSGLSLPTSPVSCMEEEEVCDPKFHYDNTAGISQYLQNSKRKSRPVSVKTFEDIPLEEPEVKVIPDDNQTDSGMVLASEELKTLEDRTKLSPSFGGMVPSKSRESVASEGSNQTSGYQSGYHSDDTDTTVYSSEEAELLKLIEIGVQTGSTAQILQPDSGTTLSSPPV

In this series the target is VEGF receptors on HUVEC (VEGFR2/KDR) (Homo sapiens) (UniProt P35968). Nature of the series: competition with a labelled probe. The note with it: 2'-F pyrimidines; no displacement of 125I-VEGF-165 up to 1000 nM; non-antagonist though it binds KDR/Fc; protein on the cell surface.

Where cells or extracts were used, other partners may take part. Some results are limits rather than exact numbers.

In the case of “GGGAGGACGAUGCGGGGCCUGUUUGGAUCAUACCGAUCGUCAAUCCAAGAGUGGUCAGACGACUCGCCCGA [K1]”, the IC50 (usually the concentration that inhibits the measured activity by half) was over 1000 nM.
